PubChem BioAssay AID651640 (Broad Institute, 2012)
About 6,000 (1.7%) of roughly 350,000 compounds were called active. The shares of active, inactive and inconclusive entries below differ from those in the screen. No stated cut-off is given here; in the data, active means CPE inhibition above about 20% (passing the limit was not always enough); inconclusive means no clear call, values can overlap the other calls; tested in BHK-21 cells.

Assay: protection of cells from dengue 2 killing – plate reader, single concentration, primary screen (AID 651640);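 further: 0% = median of neutral control wells and 100% = median of positive control wells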
Settings: DENV2-infected cells, cytopathic effect rescue, at 9.99 µM, stronger effect = higher value

Structure (SMILES) | CPE inhibition
COc1ccccc1-c1cn(CC[C@@H]2CC[C@H](NC(=O)CCN3CCCCC3)[C@@H](CO)O2)nn1 | inconclusive: 23.9%
CC1(C)CN(CCc2ccccc2)C(=O)[C@H]1CC(=O)Nc1ccc(Br)cc1 | inactive: 0.989%
C[C@@H]1CCCCO[C@@H](CN(C)C(=O)Nc2ccc(C(F)(F)F)cc2)[C@H](C)CN([C@@H](C)CO)C(=O)c2cc(N(C)C)ccc2O1 | inconclusive: 36%
COc1cccc(-c2cnc3c(c2)C(=O)N([C@H](C)CO)C[C@H](C)[C@H](CN(C)S(C)(=O)=O)O3)c1 | inconclusive: 23.5%
COc1cc(C(=O)NNC(=O)/C=C/c2ccccc2)cc(OC)c1OC | inconclusive: 33.4%
O=C(c1[nH]c(C(F)(F)F)nc1-c1ccccc1)N1CCCN(Cc2ccc(F)cc2)CC1 | inactive: 15.2%
O=S(=O)(N[C@H]1CC[C@@H](CCn2cc(-c3ccccn3)nn2)O[C@H]1CO)c1cccc(Cl)c1 | inconclusive: 32.7%
CCCN(CC(=O)Nc1ccccc1C)C(=O)Cc1c(C)nc2ccccc2c1C | inconclusive: 56.6%
C=Cn1cc[n+](CC(=O)c2cc(C(C)(C)C)c(O)c(C(C)(C)C)c2)c1 | inconclusive: 54.6%
CC1CC(C)CN(S(=O)(=O)c2ccc(NC(=O)[C@@H]3CCCN3C(=O)c3cccs3)cc2)C1 (stereo not given in full) | inconclusive: 21.6%
Cn1c(=O)c2c(c3ccccc31)OC(C)(C)C=C2 | inconclusive: 65.8%
CCN1[C@H](C(=O)NCC(F)(F)F)[C@@H](CO)[C@@H]2Cn3c(ccc(-c4ccccc4)c3=O)[C@@H]21 | inactive: 17.2%
CCOC1=C2[C@@H](CN(S(=O)(=O)c3ccc(C)cc3)[C@H]2c2ccccc2F)[C@H]2C(=O)N(CC)C(=O)[C@H]2C1 | inconclusive: 25.6%
O=C(CN1CCOCC1)N1CCCCN2[C@@H](CO)[C@@H](c3ccc(-c4ccccc4F)cc3)[C@@H]2C1 | inconclusive: 30.4%
CCOC(=O)Cc1csc(NS(=O)(=O)c2ccc([N+](=O)[O-])cc2)n1 | inconclusive: 23.1%
O=C(C[C@@H]1C[C@@H]2c3cc(NC(=O)Cc4ccncc4)ccc3O[C@@H]2[C@@H](CO)O1)NCCN1CCCCC1 | active: 77.1%
C[C@@H]1CN([C@@H](C)CO)C(=O)Cc2cc(NS(=O)(=O)c3ccc(F)cc3)ccc2O[C@H]1CN(C)C(=O)Nc1ccc(C(F)(F)F)cc1 | inconclusive: 26.7%
COc1ccc([N+](=O)[O-])cc1NC(=O)/C=C/C(=O)O | active: 65.9%
COCC(=O)N1CC2(CCN(Cc3ccccc3)CC2)c2c(n(C)c3cc(OC)ccc23)[C@H]1CO | inconclusive: 23.4%
CC(=O)c1ccc(NC(=O)Nc2ccc([N+](=O)[O-])cc2)cc1 | inconclusive: 33.7%
O=C(NCc1cccs1)c1cccc(Nc2nc3ccc(Br)cc3[nH]2)c1 | active: 22.3%
C[C@@H]1CN([C@@H](C)CO)C(=O)CCCn2cc(nn2)CO[C@H]1CN(C)C(=O)Nc1ccc2c(c1)OCCO2 | inconclusive: 26.9%
Cc1ccc(S(=O)(=O)Nc2cccc3c2O[C@H](CN(C)C(=O)NC(C)C)[C@@H](C)CN([C@H](C)CO)C3=O)cc1 | inactive: -0.146%

Structure (SMILES) | CPE inhibition
CCCCN1C(=O)C(=O)N(CC(=O)c2ccc3c(c2)OCO3)C1=O | inconclusive: 21.8%
C[C@@H]1CN([C@@H](C)CO)C(=O)c2cc(NS(=O)(=O)c3ccc(Cl)cc3)ccc2O[C@@H](C)CCCCO[C@H]1CN(C)C(=O)CCC(F)(F)F | inactive: -8.41%
COCCN(C(=O)c1csnn1)C(C(=O)NC1CCCC1)c1ccc(C)cc1 (stereo not given) | inconclusive: 34.3%
Cc1ccccc1-c1cnc(C(O)c2cccc(C)c2C)[nH]1 (stereo not given) | active: 20.6%
C[C@@H]1CCCCO[C@H](CN(C)CC2CC2)[C@@H](C)CN([C@H](C)CO)C(=O)c2cc(NS(=O)(=O)c3ccccc3)ccc2O1 | inactive: -4.01%
Cc1noc(C)c1S(=O)(=O)N(C)C[C@@H]1OCCCC[C@H](C)Oc2ccc(NS(=O)(=O)c3ccccc3)cc2C(=O)N([C@@H](C)CO)C[C@H]1C | inconclusive: 28.8%
CSc1ncccc1C(=O)OCC(=O)NCc1ccc2c(c1)OCO2 | inactive: -8.19%
O=C(NCCc1ccccc1)c1cccc(N2C(=O)C3CC=CCC3C2=O)c1 (stereo not given) | inconclusive: 24.5%
CC(=O)Cn1nnc(-c2ccc(C(F)(F)F)cc2)n1 | inconclusive: 28.6%
CCCN1CCN(CC(=O)Nc2nc3ccccc3s2)CC1 | inconclusive: 21.2%
O=C(Nc1ccc(F)cc1)Nc1ccc(Oc2ncnc3cc(Cl)ccc23)nc1 | inconclusive: 55.6%
Cc1sc2nc(N3CCOCC3)[nH]c(=O)c2c1-c1ccccc1 | inactive: 13.8%
COc1ccccc1CNC(=O)C[C@H]1CC[C@@H](NC(=O)CN(C)C)[C@@H](CO)O1 | inactive: -1.02%
O=C(/C=C/c1cccc(Cl)c1)OCC(=O)c1ccc[nH]1 | inconclusive: 21.5%
COCC(=O)N[C@@H]1CC[C@@H](CC(=O)NCc2ccccc2OC)O[C@H]1CO | inactive: -10.7%
O=C(c1cccc(Cl)c1)N1CCC(=O)N(C(COCc2ccccc2)Cc2ccccc2)CC1 (stereo not given) | inconclusive: 59.1%
Cc1ccc(S(=O)(=O)NN=C2C3CC4CC(C3)CC2C4)cc1 | inconclusive: 45.9%
COc1ccccc1-c1cnc2c(c1)C(=O)N([C@H](C)CO)C[C@H](C)[C@@H](CN(C)Cc1ccc(C(=O)O)cc1)O2 | inconclusive: 21.5%
CN1C(=O)C(c2cn(C)c3ccccc23)(c2cn(C)c3ccccc23)c2cc(F)ccc21 | active: 29.5%
O=C1c2ccc(Cl)cc2S(=O)(=O)c2cccc(C(=O)N3CCC(Cc4ccccc4)CC3)c21 | inconclusive: 55.7%
C[C@@H]1CCCCO[C@H](CN(C)Cc2ccc3c(c2)OCO3)[C@@H](C)CN([C@H](C)CO)C(=O)c2cc(N(C)C)ccc2O1 | inconclusive: 57.4%
CCCNC(=O)C[C@@H]1CC[C@@H]2[C@H](COc3ccc(NC(=O)c4ccccc4)cc3C(=O)N2C)O1 | inactive: 16.9%

4 entries from above, comma-delimited.
Structure (SMILES),CPE inhibition
O=C(CN1CCOCC1)N1CCCCN2[C@@H](CO)[C@@H](c3ccc(-c4ccccc4F)cc3)[C@@H]2C1,inconclusive: 30.4%
CCOC(=O)Cc1csc(NS(=O)(=O)c2ccc([N+](=O)[O-])cc2)n1,inconclusive: 23.1%
Cc1ccc(S(=O)(=O)Nc2cccc3c2O[C@H](CN(C)C(=O)NC(C)C)[C@@H](C)CN([C@H](C)CO)C3=O)cc1,inactive: -0.146%
COc1ccccc1-c1cnc2c(c1)C(=O)N([C@H](C)CO)C[C@H](C)[C@@H](CN(C)Cc1ccc(C(=O)O)cc1)O2,inconclusive: 21.5%
